# Laboratory results: the supplement of paper PMC10849652
# Sequences of proteins named here, by UniProt entry; tags and fusion partners are left off. A change or cut given only in a name is not applied to a line headed by its entry.
# UniProt P41091, whole entry, looked up: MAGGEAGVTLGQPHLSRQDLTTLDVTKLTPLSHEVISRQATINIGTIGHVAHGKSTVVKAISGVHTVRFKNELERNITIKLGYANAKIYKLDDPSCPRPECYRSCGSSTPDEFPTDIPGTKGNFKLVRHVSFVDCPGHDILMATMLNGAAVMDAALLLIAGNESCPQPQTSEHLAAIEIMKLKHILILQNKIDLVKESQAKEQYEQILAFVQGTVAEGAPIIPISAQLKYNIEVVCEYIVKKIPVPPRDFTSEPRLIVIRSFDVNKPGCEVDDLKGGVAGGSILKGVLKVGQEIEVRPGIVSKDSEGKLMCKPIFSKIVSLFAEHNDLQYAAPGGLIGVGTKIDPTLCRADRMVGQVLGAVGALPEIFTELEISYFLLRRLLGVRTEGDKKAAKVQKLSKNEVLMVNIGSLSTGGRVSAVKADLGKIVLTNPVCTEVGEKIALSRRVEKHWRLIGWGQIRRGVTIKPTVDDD
# UniProt P0DPD8: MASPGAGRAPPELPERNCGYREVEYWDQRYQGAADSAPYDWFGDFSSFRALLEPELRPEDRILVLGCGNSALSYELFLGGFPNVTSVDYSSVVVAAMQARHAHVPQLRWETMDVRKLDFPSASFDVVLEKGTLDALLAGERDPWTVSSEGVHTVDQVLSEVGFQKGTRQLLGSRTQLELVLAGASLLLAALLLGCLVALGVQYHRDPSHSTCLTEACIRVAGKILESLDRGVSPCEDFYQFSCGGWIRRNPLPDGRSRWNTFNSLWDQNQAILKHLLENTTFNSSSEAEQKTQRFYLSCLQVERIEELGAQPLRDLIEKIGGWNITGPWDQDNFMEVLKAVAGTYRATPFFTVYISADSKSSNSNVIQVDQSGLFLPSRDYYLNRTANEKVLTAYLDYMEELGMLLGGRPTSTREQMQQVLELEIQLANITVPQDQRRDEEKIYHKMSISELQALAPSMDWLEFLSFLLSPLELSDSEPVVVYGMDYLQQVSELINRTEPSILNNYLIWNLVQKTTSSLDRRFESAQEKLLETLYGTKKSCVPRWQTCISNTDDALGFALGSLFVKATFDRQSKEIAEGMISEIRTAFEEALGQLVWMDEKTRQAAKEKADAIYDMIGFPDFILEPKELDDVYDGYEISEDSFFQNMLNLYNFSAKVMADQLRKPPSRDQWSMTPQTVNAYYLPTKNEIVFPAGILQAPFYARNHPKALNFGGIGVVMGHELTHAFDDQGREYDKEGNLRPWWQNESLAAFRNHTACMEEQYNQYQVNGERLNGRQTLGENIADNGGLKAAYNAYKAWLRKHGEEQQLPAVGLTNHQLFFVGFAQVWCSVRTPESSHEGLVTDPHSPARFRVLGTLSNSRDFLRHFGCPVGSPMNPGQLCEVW
# UniProt O60573: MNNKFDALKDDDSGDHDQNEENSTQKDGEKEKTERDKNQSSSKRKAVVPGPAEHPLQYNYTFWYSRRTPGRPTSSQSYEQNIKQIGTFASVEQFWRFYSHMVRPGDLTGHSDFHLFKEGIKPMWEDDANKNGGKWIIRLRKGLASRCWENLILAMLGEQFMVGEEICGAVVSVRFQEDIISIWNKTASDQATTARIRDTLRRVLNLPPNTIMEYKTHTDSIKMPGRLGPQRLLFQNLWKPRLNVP
# UniProt Q14156: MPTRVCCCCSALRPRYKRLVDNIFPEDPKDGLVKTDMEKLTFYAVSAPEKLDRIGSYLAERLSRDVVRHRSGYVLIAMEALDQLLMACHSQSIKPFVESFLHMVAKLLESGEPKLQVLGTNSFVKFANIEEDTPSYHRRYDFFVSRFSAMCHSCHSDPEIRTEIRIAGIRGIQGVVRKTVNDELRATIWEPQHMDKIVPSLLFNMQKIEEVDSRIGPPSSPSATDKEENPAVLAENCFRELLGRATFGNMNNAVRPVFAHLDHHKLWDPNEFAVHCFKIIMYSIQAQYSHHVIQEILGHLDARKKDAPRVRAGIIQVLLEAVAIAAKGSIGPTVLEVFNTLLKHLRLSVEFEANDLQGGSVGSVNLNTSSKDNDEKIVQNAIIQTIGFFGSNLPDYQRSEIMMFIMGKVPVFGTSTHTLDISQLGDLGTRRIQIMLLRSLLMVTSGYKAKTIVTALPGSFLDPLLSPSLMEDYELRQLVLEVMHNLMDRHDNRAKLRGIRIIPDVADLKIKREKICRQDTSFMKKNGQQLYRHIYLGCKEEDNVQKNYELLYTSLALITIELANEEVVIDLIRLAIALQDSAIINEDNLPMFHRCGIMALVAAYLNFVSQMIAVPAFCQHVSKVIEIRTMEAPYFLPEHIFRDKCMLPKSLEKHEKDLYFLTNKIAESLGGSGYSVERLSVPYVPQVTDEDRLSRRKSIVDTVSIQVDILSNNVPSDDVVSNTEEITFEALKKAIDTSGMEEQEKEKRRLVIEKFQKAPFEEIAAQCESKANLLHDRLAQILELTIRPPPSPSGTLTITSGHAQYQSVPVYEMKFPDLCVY
# This is one part of the list.
# What was measured:
# Assay in all cases: log2 fold change, soluble protein after heating vs DMSO (PISA); higher = thermal stabilisation; K562 cells, 10 uM, 30 min; active = over 0.2 and 3.5 SD of the protein, either way, in both replicates (recomputed)
# [1] = compound: CC1=C(C=C(C=C1)NC(=O)C2=CC(=CC=C2)C(C)(C)C#N)NC3=CC4=C(C=C3)N=CN(C4=O)C
# Procedure, shortened: (§1)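 Aliquots of K562 cells (2×10^6 cells/mL) treated with 10 μM compound for 30 min were heated for 3 min over 48°C-58°C. After pooling and extraction in PBS with 0.5% NP-40 at 4°C, soluble protein from a 21,000xg, 90 min spin was quantified by TMTpro 16plex LC-MS/MS with channel sums equalised. Thermal stability is expressed against control samples, from duplicates, as a log2 fold change.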
# [2] = compound: CC1=C(C=C(C=C1)NC(=O)C2=CC(=CC=C2)N(C)C)NC(=O)C3=CC=C(C=C3)O
# Procedure, shortened: as §1
# [3] = compound: CC1=CC=C(C=C1)SC2=C3C=C(SC3=CN=C2)C(=O)N
# Procedure, shortened: as §1
# [4] = compound: CC1=NC(=CC=C1)C2=C(N=C(N2)C(C)(C)C)C3=CC4=NC=CN=C4C=C3
# Procedure, shortened: as §1
# Nexturastat A = compound: CCCCN(Cc1ccc(C(=O)NO)cc1)C(=O)Nc1ccccc1 [Nexturastat A]
# Procedure, shortened: as §1
# vemurafenib = compound: CCCS(=O)(=O)Nc1ccc(F)c(C(=O)c2c[nH]c3ncc(-c4ccc(Cl)cc4)cc23)c1F [vemurafenib]
# Procedure, shortened: as §1
# [5] = compound: CCCS(=O)(=O)Nc1ccc(F)c(C(=O)c2c[nH]c3ncc(Cl)cc23)c1F
# Procedure, shortened: as §1
# [6] = compound: CCCc1cc(C)[nH]c(=O)c1CNC(=O)c1cc(-c2ccnc(N3CCN(C)CC3)c2)cc2c1cnn2C(C)C
# Procedure, shortened: as §1
# givinostat = compound: CCN(CC)Cc1ccc2cc(COC(=O)Nc3ccc(C(=O)NO)cc3)ccc2c1 [givinostat]
# Procedure, shortened: as §1
# barasertib = compound: CCN(CCCOc1ccc2c(Nc3cc(CC(=O)Nc4cccc(F)c4)[nH]n3)ncnc2c1)CCOP(=O)(O)O [barasertib]
# Procedure, shortened: as §1
# [7] = compound: CC[C@@H]1C(=O)N(C)c2cnc(Nc3ccc(C(=O)NC4CCN(C)CC4)cc3OC)nc2N1C1CCCC1
# Procedure, shortened: as §1
# volasertib = compound: CC[C@@H]1C(=O)N(C)c2cnc(Nc3ccc(C(=O)N[C@H]4CC[C@H](N5CCN(CC6CC6)CC5)CC4)cc3OC)nc2N1C(C)C [volasertib]
# Procedure, shortened: as §1
# [8] = compound: CC[C@H](C)N1C=C(C2=C(C=C(C=C21)C3=CN=C(C=C3)N4CCNCC4)C(=O)NCC5=C(C=C(NC5=O)C)C)C
# Procedure, shortened: as §1
# epoxomicin = compound: CC[C@H](C)[C@@H](C(=O)N[C@@H]([C@@H](C)O)C(=O)N[C@@H](CC(C)C)C(=O)[C@]1(CO1)C)NC(=O)[C@H]([C@@H](C)CC)N(C)C(=O)C [epoxomicin]
# Procedure, shortened: as §1
# [9] = compound: CCn1cc(-c2ccnc3[nH]c(-c4cccc(CN(C)C)c4)cc23)c(-c2ccc(NC(=O)N(C)C)cc2)n1
# Procedure, shortened: as §1
# [10] = compound: CN(C)CC(=O)Nc1ccc2[nH]c(=O)c3ccccc3c2c1
# Procedure, shortened: as §1
# [11] = compound: CN1C2=C(C3=C1C(=O)N(N=C3)CC4=CC(=CC=C4)N)SC(=C2)S(=O)C
# Procedure, shortened: as §1
# [12] = compound: CN1CCC(CNc2ccc3ncc(-c4cccc(OC(F)(F)F)c4)n3n2)CC1
# Procedure, shortened: as §1
# [13] = compound: CCn1c(C(=O)N(C2CC2)C2CC2)cc2c3c(ncn3C)c(Nc3cc(C)n(C)n3)nc21
# Procedure, shortened: as §1
# rosiglitazone = compound: CN(CCOC1=CC=C(C=C1)C[C@H]2C(=O)NC(=O)S2)C3=CC=CC=N3 (racemic) [rosiglitazone]
# Procedure, shortened: as §1
Target,log2 fold change [1],log2 fold change [2],log2 fold change [3],log2 fold change [4],log2 fold change (Nexturastat A),log2 fold change (vemurafenib),log2 fold change [5],log2 fold change [6],log2 fold change (givinostat),log2 fold change (barasertib),log2 fold change [7],log2 fold change (volasertib),log2 fold change [8],log2 fold change (epoxomicin),log2 fold change [9],log2 fold change [10],log2 fold change [11],log2 fold change [12],log2 fold change [13],log2 fold change (rosiglitazone)
EIF2S3 (UniProt P41091),inactive: 0.02,inactive: 0,inactive: -0.006,inactive: -0.032,inactive: 0.102,inactive: -0.029,inactive: 0.007,inactive: 0.05,inactive: 0.028,inactive: -0.033,inactive: 0.076,inactive: 0.073,inactive: 0.026,inactive: -0.144,inactive: 0.055,inactive: -0.034,inactive: 0.068,inactive: 0.049,,
"EPB41, A0A2R8Y6D0",inactive: -0.077,inactive: 0.119,inactive: 0.041,,,inactive: 0.027,inactive: -0.017,inactive: -0.014,inactive: 0.03,inactive: 0.004,inactive: 0.049,inactive: 0.008,inactive: 0.041,,inactive: 0.011,inactive: 0.083,,inactive: -0.012,inactive: -0.038,inactive: -0.001
EEF1AKMT4-ECE2 (UniProt P0DPD8),inactive: 0.108,,,inactive: -0.084,,,,,,inactive: 0.133,,,,,,,inactive: 0.517,,,inactive: 0.108
EIF4E2 (UniProt O60573),inactive: -0.089,inactive: -0.006,inactive: 0.061,inactive: 0.089,inactive: 0.097,inactive: 0.126,inactive: 0.069,inactive: 0,inactive: 0.031,inactive: 0.083,inactive: -0.202,active: -0.381,inactive: 0.124,inactive: 0.018,,inactive: 0.063,inactive: -0.034,,,
EFR3A (UniProt Q14156),inactive: 0.152,,,,inactive: 0.472,inactive: -0.131,,inactive: -0.014,,,,,inactive: -0.242,inactive: 0.158,,inactive: 0.012,,,,
